Test results as given in US9133271 (AbbVie / Abbott, dated 2015).
No constants are given. Whether binding was seen depends on the method and setting. A result given as binding can be weak or reduced; the word gives no strength.

Experiments:
[1] = target: Cyno (column Cyno XR); assay: cross-reactivity with cynomolgus DLL3, Biacore
[2] = target: Cyno (column Cyno XR); assay: cross-reactivity with cynomolgus DLL3, yeast display and flow cytometry

binding [1] | binding [2] | Binder
binds |  | SC16.15 (antibody, V domains shown) VH: QVQLQQSGAELAKPGASVKMSCKASGYTFTRYWIHWIKQRPGQGLEWIGYINPTTVYTEFNQNFKDKATLTADKSSTTASMQLSSLTSEDSAVYYCARGGSNFFDYWGQGTTLTVSS VL: DIQMTQSPASLAASVGETVAITCRASENIYYNLAWYQQKQGKSPQLLIYTANSLEDGVPSRFSGSGSGTQYSLKINSMQPEDSATYFCKQAYDVPPTFGGGTKLEIK
binds |  | SC16.25 (antibody, V domains shown) VH: QVTLKESGPGILQPSQTLSLTCSFSGFSLSTSGMGVGWIRQPSGEGLEWLTDIWWDDNKYYNPSLKSRLTISKDTSSNQVFLNITSVDTADTATYYCARRVNYYYDPYYAMDYWGQGTSVTVSS VL: QIVLTQSPAIMSASPGEKVTMTCSASSSVSYMHWYQQKSGTSPKRWIYDSSKLASGVPARFSGSGSGTSYSLTISSMEAEDAATYYCQQWSSNPLTFGAGTKLELK
binds |  | SC16.34 (antibody, V domains shown) VH: QIQLVQSGPELKRPGETVKISCKASGYTFTNYGMNWVKQAPGKGLKWMGWINTYTGDPTYADDFKGRFAFSLETSASTAYLQINNLKNEDTATYFCARIGGNSPSDYWGQGTSLTVSS VL: SIVMTQTPKFLLVSAGDRVTITCKASQSVSNDVAWYQQKPGQSPKLLIYYASNRYSGVPDRFTGSGYGTDFTFTISTVQAEDLAVYFCQQDYSSPWTFGGGTKLEIK
binds |  | SC16.56 (antibody, V domains shown) VH: QIQLVQSGPELKKPGETVKISCKASGYTFTNYGMNWVKQAPGKGLKWMAWINTYTGEPTYADDFKGRFAFSLETSASTASLQIINLKNEDTATYFCARIGDSSPSDYWGQGTTLTVSS VL: SIVMTQTPKFLLVSAGDRVTITCKASQSVSNDVVWYQQKPGQSPKLLIYYASNRYTGVPDRFAGSGYGTDFSFTISTVQAEDLAVYFCQQDYTSPWTFGGGTKLEIR
 | binds | SC16.67 (antibody, V domains shown, murine anti-DLL3 mAb) VH: EVQLVETGGGLVQPKGSLKLSCAVSAFTFTTYAMNWVRQAPGKGLEWVARIRNKSNNYATYYADSVKDRFTISRDDSQSMLYLQMNNLKIEDTAMYYCVFYYDYVYWGQGTLVTVSA VL: QAVVTQESALTTSPGETVTLTCRSSTGAVTTSNYANWIQEKPDHLFTGLIGGTNNRAPGVPARFSGSLIGDKAALTITGAQTEDEAIYFCGLWYSNHLVFGGGTKLTVL
